Experimental findings from article doi:10.1101/2024.04.18.590116 (bioRxiv, 2024) are described below.

Results are given in words; binding and its absence hold for the method and conditions named. For part of these data: In cells and extracts the contact can be indirect. Some results given as binding are weak or reduced against the parent protein; the word gives no strength. Sequences can lack the tags named with a protein.

The target of test [1] is T1, KRP3 fused to the GAL4 DNA binding domain (rice (Oryza sativa)) (UniProt Q2R185).
T1 sequence: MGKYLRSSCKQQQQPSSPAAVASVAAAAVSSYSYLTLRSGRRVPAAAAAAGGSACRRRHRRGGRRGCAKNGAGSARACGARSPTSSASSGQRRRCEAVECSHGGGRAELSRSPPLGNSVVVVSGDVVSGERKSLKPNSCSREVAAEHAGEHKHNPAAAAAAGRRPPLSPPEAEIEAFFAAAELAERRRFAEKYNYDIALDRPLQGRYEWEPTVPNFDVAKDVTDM
The test can be described thus: two-hybrid.

In test [2] the target is T2, KRP3 cloned with the C-terminal domain of firefly luciferase (rice (Oryza sativa)) (UniProt Q2R185).
T2 sequence: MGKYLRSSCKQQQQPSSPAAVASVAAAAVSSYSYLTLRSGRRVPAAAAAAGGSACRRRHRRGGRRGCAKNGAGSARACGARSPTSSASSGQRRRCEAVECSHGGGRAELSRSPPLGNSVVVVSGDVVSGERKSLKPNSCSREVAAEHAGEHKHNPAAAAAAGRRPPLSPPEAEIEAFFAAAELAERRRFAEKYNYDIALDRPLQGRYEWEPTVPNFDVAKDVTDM
Description: split reporter.

Test [3] has as its target T3, KRP3 cloned with nYFP fraction (rice (Oryza sativa)) (UniProt Q2R185).
T3 sequence: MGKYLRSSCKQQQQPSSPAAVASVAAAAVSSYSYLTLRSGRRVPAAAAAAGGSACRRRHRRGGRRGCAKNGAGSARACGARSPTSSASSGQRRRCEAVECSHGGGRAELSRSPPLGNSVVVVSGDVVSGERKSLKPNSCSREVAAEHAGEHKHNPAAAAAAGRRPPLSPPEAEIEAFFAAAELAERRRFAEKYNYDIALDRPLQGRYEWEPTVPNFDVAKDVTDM
Description: split reporter.

B1: MPK3 fused to the GAL4 activation domain (enzyme, UniProt Q10N20 1-369)
chain: MDGAPVAEFRPTMTHGGRYLLYDIFGNKFEVTNKYQPPIMPIGRGAYGIVCSVMNFETREMVAIKKIANAFNNDMDAKRTLREIKLLRHLDHENIIGIRDVIPPPIPQAFNDVYIATELMDTDLHHIIRSNQELSEEHCQYFLYQILRGLKYIHSANVIHRDLKPSNLLLNANCDLKICDFGLARPSSESDMMTEYVVTRWYRAPELLLNSTDYSAAIDVWSVGCIFMELINRQPLFPGRDHMHQMRLITEVIGTPTDDELGFIRNEDARKYMRHLPQYPRRTFASMFPRVQPAALDLIERMLTFNPLQRITVEEALDHPYLERLHDIADEPICLEPFSFDFEQKALNEDQMKQLIFNEAIEMNPNIRY
In the case of B1, the binding result in test [1] was “binds”.

B2: MPK3 cloned with the N-terminal domain of firefly luciferase (enzyme, UniProt Q10N20 1-369)
chain: MDGAPVAEFRPTMTHGGRYLLYDIFGNKFEVTNKYQPPIMPIGRGAYGIVCSVMNFETREMVAIKKIANAFNNDMDAKRTLREIKLLRHLDHENIIGIRDVIPPPIPQAFNDVYIATELMDTDLHHIIRSNQELSEEHCQYFLYQILRGLKYIHSANVIHRDLKPSNLLLNANCDLKICDFGLARPSSESDMMTEYVVTRWYRAPELLLNSTDYSAAIDVWSVGCIFMELINRQPLFPGRDHMHQMRLITEVIGTPTDDELGFIRNEDARKYMRHLPQYPRRTFASMFPRVQPAALDLIERMLTFNPLQRITVEEALDHPYLERLHDIADEPICLEPFSFDFEQKALNEDQMKQLIFNEAIEMNPNIRY
For B2, the binding result in test [2] is “binds”.

B3: MPK3 cloned with cYFP fraction (enzyme, UniProt Q10N20 1-369)
chain: MDGAPVAEFRPTMTHGGRYLLYDIFGNKFEVTNKYQPPIMPIGRGAYGIVCSVMNFETREMVAIKKIANAFNNDMDAKRTLREIKLLRHLDHENIIGIRDVIPPPIPQAFNDVYIATELMDTDLHHIIRSNQELSEEHCQYFLYQILRGLKYIHSANVIHRDLKPSNLLLNANCDLKICDFGLARPSSESDMMTEYVVTRWYRAPELLLNSTDYSAAIDVWSVGCIFMELINRQPLFPGRDHMHQMRLITEVIGTPTDDELGFIRNEDARKYMRHLPQYPRRTFASMFPRVQPAALDLIERMLTFNPLQRITVEEALDHPYLERLHDIADEPICLEPFSFDFEQKALNEDQMKQLIFNEAIEMNPNIRY
Take B3: in test [3], the binding entry is “binds”.
